Test results as given in patent publication US20140018304A1 (INDUSTRY ACADEMIC COOPERATION FOUNDATION YONSEI UNIVERSITY, published 2014).
Results are given in words; binding and its absence hold for the method and conditions named. For some assays here: In cells and extracts the contact can be indirect. Some results given as binding are weak or reduced against the parent protein; the word gives no strength. Tags and fused reporters may be left off the sequences shown. One block for each binder: values may come before it.

Columns and labels:
[1] = biological target: T1, PAUF-Myc/His from pcDNA3.1(+)-PAUF-Myc/His (UniProt Q96DA0); experiment: His pull-down: PAUF-His on Ni-NTA resin with CFPAC-1 total proteins, western blot
T1 sequence (looked up): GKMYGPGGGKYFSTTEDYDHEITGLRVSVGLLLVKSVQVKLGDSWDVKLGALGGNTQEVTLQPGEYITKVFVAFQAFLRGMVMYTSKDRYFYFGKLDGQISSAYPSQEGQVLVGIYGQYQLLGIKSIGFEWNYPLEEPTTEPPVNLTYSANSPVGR

[2] = biological target: T1, PAUF-Myc/His from pcDNA3.1(+)-PAUF-Myc/His; experiment: co-expression in HeLa cells, precipitation with Ni-NTA resin, western blot
[3] = biological target: T1, PAUF-Myc/His from pcDNA3.1(+)-PAUF-Myc/His; experiment: in vivo co-immunoprecipitation of GLRX3 constructs with PAUF, western blot

B2: UBL4A (H32) expressed from 3xFLAG-CMV14/H32 (protein, Homo sapiens, UniProt P11441 1-157, looked up, not shown: small tags and cut ends)
chain: MQLTVKALQGRECSLQVPEDELVSTLKQLVSEKLNVPVRQQRLLFKGKALADGKRLSDYSIGPNSKLNLVVKPLEKVLLEEGEAQRLADSPPPQVWQLISKVLARHFSAADASRVLEQLQRDYERSLSRLTLDDIERLASRFLHPEVTETMEKGFSK
- binding [2]: binds

B4: GLRX3 (H14) expressed from 3xFLAG-CMV14/H14 (enzyme, Homo sapiens, UniProt O76003 1-335, looked up, not shown: small tags and cut ends)
chain: MAAGAAEAAVAAVEEVGSAGQFEELLRLKAKSLLVVHFWAPWAPQCAQMNEVMAELAKELPQVSFVKLEAEGVPEVSEKYEISSVPTFLFFKNSQKIDRLDGAHAPELTKKVQRHASSGSFLPSANEHLKEDLNLRLKKLTHAAPCMLFMKGTPQEPRCGFSKQMVEILHKHNIQFSSFDIFSDEEVRQGLKAYSSWPTYPQLYVSGELIGGLDIIKELEASEELDTICPKAPKLEERLKVLTNKASVMLFMKGNKQEAKCGFSKQILEILNSTGVEYETFDILEDEEVRQGLKAYSNWPTYPQLYVKGELVGGLDIVKELKENGELLPILRGEN
- binding [3]: binds
- binding [2]: binds

Results, then the binder that gave them:

- binding [1]: binds
B1: UBL4A protein (Ubiquitin-like 4A) in total proteins of the pancreatic cancer cell line CFPAC-1 (protein, human, UniProt P11441 1-157, looked up)
chain: B2 chain

- binding [1]: binds
B3: GLRX3 protein (Glutaredoxin-3) in total proteins of the pancreatic cancer cell line CFPAC-1 (enzyme, human, UniProt O76003 2-335, looked up)
chain: AAGAAEAAVAAVEEVGSAGQFEELLRLKAKSLLVVHFWAPWAPQCAQMNEVMAELAKELPQVSFVKLEAEGVPEVSEKYEISSVPTFLFFKNSQKIDRLDGAHAPELTKKVQRHASSGSFLPSANEHLKEDLNLRLKKLTHAAPCMLFMKGTPQEPRCGFSKQMVEILHKHNIQFSSFDIFSDEEVRQGLKAYSSWPTYPQLYVSGELIGGLDIIKELEASEELDTICPKAPKLEERLKVLTNKASVMLFMKGNKQEAKCGFSKQILEILNSTGVEYETFDILEDEEVRQGLKAYSNWPTYPQLYVKGELVGGLDIVKELKENGELLPILRGEN
